Laboratory results from PMC12447755 (Chemical Science, 2025).
Strings that start with PEPTIDE1 are HELM notation: dots part the residues, brackets hold end groups and non-standard residues.

Test: general procedure: Fmoc solid-phase peptide synthesis; Rink Amide MBHA low-loading resin (100–200 mesh, loading 0.3–0.4 mmol/g)
Settings: for final HPLC purity / isolated mass / final LC-MS purity: TFA salt; for isolated yield: calculated as TFA salt; for final HPLC purity / final LC-MS purity: HPLC
[1] = whole synthesis, scale of the general procedure 0.1 mmol or 0.25 mmol
[2] = whole synthesis, scale 0.25 mmol
[3] = whole synthesis, scale 0.1 mmol

Substance	final HPLC purity [1]	final HPLC purity (cyclisation step)	further results
Ac-TLKQFCKGVGKWCVK-NH2 (cysteine pairing not given here)	84%		isolated yield [2]: 13%; isolated mass [2]: 57 mg
Ac-WCLKKFRGCF-NH2 (cysteine pairing not given here)	85%		isolated yield [2]: 15%; isolated mass [2]: 51 mg
C8–GCLKFIKKCL–NH2	95%		isolated yield [2]: 9%; isolated mass [2]: 29 mg
H-NLFRKLCHRLFRRCFGYTLR-NH2 (cysteine pairing not given here)	90%		isolated yield [2]: 5%; isolated mass [2]: 35 mg
PEPTIDE1{C.A.K.W.A.F.K.C.L.K.K.[am]}|CHEM1{[staple8]}$PEPTIDE1,CHEM1,1:R3-1:R1|PEPTIDE1,CHEM1,8:R3-1:R2$$$V2.0		98%	
PEPTIDE1{C.F.A.K.W.A.F.C.W.L.K.K.[am]}|CHEM1{[staple8]}$PEPTIDE1,CHEM1,1:R3-1:R1|PEPTIDE1,CHEM1,8:R3-1:R2$$$V2.0		98%	
PEPTIDE1{F.A.K.C.A.F.K.W.L.K.C.[am]}|CHEM1{[staple8]}$PEPTIDE1,CHEM1,4:R3-1:R1|PEPTIDE1,CHEM1,11:R3-1:R2$$$V2.0		98%	
PEPTIDE1{F.A.K.W.A.F.K.W.L.K.K.[am]}$$$$V2.0	97%		isolated yield [3]: 36%; isolated mass [3]: 72.4 mg
PEPTIDE1{F.A.K.W.C.F.K.W.L.K.K.C.[am]}|CHEM1{[staple8]}$PEPTIDE1,CHEM1,5:R3-1:R1|PEPTIDE1,CHEM1,12:R3-1:R2$$$V2.0		98%	
PEPTIDE1{F.C.K.W.A.F.K.W.C.K.K.[am]}$$$$V2.0	92%		isolated yield [2]: 25%; isolated mass [2]: 129.5 mg
PEPTIDE1{F.C.K.W.A.F.K.W.C.K.K.[am]}|CHEM1{[staple1]}$PEPTIDE1,CHEM1,2:R3-1:R1|PEPTIDE1,CHEM1,9:R3-1:R2$$$V2.0		98%	
PEPTIDE1{F.C.K.W.A.F.K.W.C.K.K.[am]}|CHEM1{[staple8]}$PEPTIDE1,CHEM1,2:R3-1:R1|PEPTIDE1,CHEM1,9:R3-1:R2$$$V2.0		99.5%	
PEPTIDE1{F.C.K.W.A.F.K.W.C.K.K.[am]}|CHEM1{[stp8a]}$PEPTIDE1,CHEM1,2:R3-1:R1|PEPTIDE1,CHEM1,9:R3-1:R2$$$V2.0			final LC-MS purity (cyclisation step): 88%
PEPTIDE1{F.C.K.W.A.F.K.W.C.K.K.[am]}|CHEM1{[stp12]}$PEPTIDE1,CHEM1,2:R3-1:R1|PEPTIDE1,CHEM1,9:R3-1:R2$$$V2.0			final LC-MS purity (cyclisation step): 95%
PEPTIDE1{K.F.A.K.C.A.F.K.W.L.K.C.[am]}|CHEM1{[staple8]}$PEPTIDE1,CHEM1,5:R3-1:R1|PEPTIDE1,CHEM1,12:R3-1:R2$$$V2.0		96%	
PEPTIDE1{K.W.V.Q.N.Y.C.K.H.L.G.R.K.C.H.T.L.K.T.[am]}$$$$V2.0	99%		isolated yield [2]: 2%; isolated mass [2]: 14 mg
PEPTIDE1{K.W.V.Q.N.Y.C.K.H.L.G.R.K.C.H.T.L.K.T.[am]}|CHEM1{[staple1]}$PEPTIDE1,CHEM1,7:R3-1:R1|PEPTIDE1,CHEM1,14:R3-1:R2$$$V2.0		82%	
PEPTIDE1{K.W.V.Q.N.Y.M.K.H.L.G.R.K.A.H.T.L.K.T.[am]}$$$$V2.0	96%		isolated yield [3]: 11%; isolated mass [3]: 26 mg
PEPTIDE1{N.L.F.R.K.L.C.H.R.L.F.R.R.C.F.G.Y.T.L.R.[am]}|CHEM1{[staple1]}$PEPTIDE1,CHEM1,7:R3-1:R1|PEPTIDE1,CHEM1,14:R3-1:R2$$$V2.0		99%	
PEPTIDE1{R.F.R.R.L.C.K.K.W.R.K.R.C.K.K.I.[am]}$$$$V2.0	69%		isolated yield [2]: 5%; isolated mass [2]: 30 mg
PEPTIDE1{R.F.R.R.L.C.K.K.W.R.K.R.C.K.K.I.[am]}|CHEM1{[staple1]}$PEPTIDE1,CHEM1,6:R3-1:R1|PEPTIDE1,CHEM1,13:R3-1:R2$$$V2.0		99%	
PEPTIDE1{R.F.R.R.L.R.K.K.W.R.K.R.L.K.K.I.[am]}$$$$V2.0	90%		isolated yield [3]: 16%; isolated mass [3]: 37 mg
PEPTIDE1{[C8].G.C.L.K.F.I.K.K.C.L.[am]}|CHEM1{[staple1]}$PEPTIDE1,CHEM1,3:R3-1:R1|PEPTIDE1,CHEM1,10:R3-1:R2$$$V2.0		92%	
PEPTIDE1{[ac].W.C.L.K.K.F.R.G.C.F.[am]}|CHEM1{[staple1]}$PEPTIDE1,CHEM1,3:R3-1:R1|PEPTIDE1,CHEM1,10:R3-1:R2$$$V2.0		98%	
